According to patent US20180141988A1 (Pieris, published 2018):
Results are given in words; binding and its absence hold for the method and conditions named. Some results given as binding are weak or reduced against the parent protein; the word gives no strength.

Chains of the proteins cited; added tags and fusions are not shown. Residues count along the entry.
UniProt P51654, residues 25-559: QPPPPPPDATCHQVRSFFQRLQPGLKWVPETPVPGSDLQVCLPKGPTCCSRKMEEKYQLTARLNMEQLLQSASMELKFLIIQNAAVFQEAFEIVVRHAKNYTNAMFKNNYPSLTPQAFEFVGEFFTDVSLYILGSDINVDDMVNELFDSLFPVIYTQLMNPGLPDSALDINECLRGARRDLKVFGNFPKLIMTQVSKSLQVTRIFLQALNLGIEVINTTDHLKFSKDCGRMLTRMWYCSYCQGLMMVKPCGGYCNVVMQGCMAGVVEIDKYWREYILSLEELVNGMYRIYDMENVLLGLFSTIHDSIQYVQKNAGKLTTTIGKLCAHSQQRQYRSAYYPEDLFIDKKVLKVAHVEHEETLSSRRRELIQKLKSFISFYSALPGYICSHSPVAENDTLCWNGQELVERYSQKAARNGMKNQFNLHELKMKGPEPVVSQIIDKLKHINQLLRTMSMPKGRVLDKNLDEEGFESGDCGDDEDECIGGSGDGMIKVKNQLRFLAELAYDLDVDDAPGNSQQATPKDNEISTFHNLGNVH
UniProt Q8CFZ4: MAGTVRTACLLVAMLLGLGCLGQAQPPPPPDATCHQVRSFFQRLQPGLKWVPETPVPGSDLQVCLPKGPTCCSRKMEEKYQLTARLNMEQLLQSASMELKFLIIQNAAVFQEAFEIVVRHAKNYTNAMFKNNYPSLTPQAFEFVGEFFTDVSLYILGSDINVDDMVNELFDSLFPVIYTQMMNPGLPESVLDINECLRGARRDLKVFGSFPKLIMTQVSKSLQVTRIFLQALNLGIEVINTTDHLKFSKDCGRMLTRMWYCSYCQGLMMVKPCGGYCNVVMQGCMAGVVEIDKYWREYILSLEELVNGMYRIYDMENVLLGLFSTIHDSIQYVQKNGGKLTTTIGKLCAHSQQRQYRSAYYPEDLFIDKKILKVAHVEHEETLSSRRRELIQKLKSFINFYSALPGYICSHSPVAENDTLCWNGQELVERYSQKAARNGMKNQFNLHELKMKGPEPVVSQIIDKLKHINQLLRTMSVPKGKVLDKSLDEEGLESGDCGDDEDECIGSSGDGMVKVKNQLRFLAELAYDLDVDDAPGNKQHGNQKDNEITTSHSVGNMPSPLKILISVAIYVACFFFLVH

Key:
[1] = biological target: Human GPC3 (2119-GP; R&D systems), biotinylated (human) (UniProt P51654); assay: SPR (Biacore T200)
[2] = biological target: murine GPC3 (6938-GP; R&D systems), biotinylated (murine) (UniProt Q8CFZ4); assay: SPR (Biacore T200)

Binder | binding [1] | binding [2]
lipocalin mutein of SEQ ID NO: 5 (designed binder, hNGAL (Lcn2) mutein; also called optimized GPC3 specific lipocalin mutein) QDSTSDLIPAPPLSKVPLQQNFQDNQFQGKWYVVGVAGNALLREDKDPLKMRATIYELKEDKSYDVTVVSFWRKKCHYKIGTFVPGSQPGEFTLGDIKSGPGQTSNLVRVVSTNYNQHAMVFFKEVRQNREWFAITLYGRTKELTSELKENFIRFSKSLGLPENHIVFPVPIDQCIDGSAWSHPQFEK | binds | binds
lipocalin mutein of SEQ ID NO: 6 (designed binder, hNGAL (Lcn2) mutein; also called optimized GPC3 specific lipocalin mutein) QDSTSDLIPAPPLSKVPLQQNFQDNQFQGKWYVVGVAGNVRLREDKDPPKMRATIYELKEDKSYDVTGVSFRGKKCHYKIGTFVPGSQPGEFTLGDIKSGPGETSNLVRVVSTNYNQHAMVFFKEVRQNREWFFITLYGRTKELTSELKENFIRFSKSLGLPENHIVFPVPIDQCIDGSAWSHPQFEK | binds | binds
lipocalin mutein of SEQ ID NO: 7 (designed binder, hNGAL (Lcn2) mutein; also called optimized GPC3 specific lipocalin mutein) QDSTSDLIPAPPLSKVPLQQNFQDNQFQGKWYVVGVAGNGMLREDKDPLKMRATIYELKEDKSYDVTSVAFRNKKCHYKIGTFVPGSQPGEFTLGQIKSGPGETSNLVRVVSTNYNQHAMVFFKEVRQNREWFFITLYGRTKELTSELKENFIRFSKSLGLPENHIVFPVPIDQCIDGSAWSHPQFEK | binds | binds
lipocalin mutein of SEQ ID NO: 8 (designed binder, hNGAL (Lcn2) mutein; also called optimized GPC3 specific lipocalin mutein) QDSTSDLIPAPPLSKVPLQQNFQDNQFQGKWYVVGRAGNVGLREDKDPPKMWATIYELKEDKSYDVTNVRFARKKCLYSIGTFVPGSQPGEFTLGQIKSEPGNTANLVRVVSTNYNQHAMVFFKEVYQNREIFFIILYGRTKELTSELKENFIRFSKSLGLPENHIVFPVPIDQCIDGSAWSHPQFEK | binds | binds
lipocalin mutein of SEQ ID NO: 9 (designed binder, hNGAL (Lcn2) mutein; also called optimized GPC3 specific lipocalin mutein) QDSTSDLIPAPPLSKVPLQQNFQDNQFQGKWYVVGRAGNVGLREDKDPPKMWATIYELKEDKSYDVTNVRFARKKCTYSIGTFVPGSQPGEFTLGQIKSEPGGTANLVRVVSTNYNQHAMVFFKEVYQNREIFFIILYGRTKELTSELKENFIRFSKSLGLPENHIVFPVPIDQCIDGSAWSHPQFEK | binds | binds
lipocalin mutein of SEQ ID NO: 10 (designed binder, hNGAL (Lcn2) mutein; also called optimized GPC3 specific lipocalin mutein) QDSTSDLIPAPPLSKVPLQQNFQDNQFQGKWYVVGRAGNGALREDKDPPKMWATIYELKEDKSYDVTNVRFARKKCVYSIGTFVPGSQPGEFTLGPIKSEPGNTASLVRVVSTNYNQHAMVFFKEVYQNREIFFIILYGRTKELTSELKENFIRFSKSLGLPENHIVFPVPIDQCIDGSAWSHPQFEK | binds | binds
lipocalin mutein of SEQ ID NO: 11 (designed binder, hNGAL (Lcn2) mutein; also called optimized GPC3 specific lipocalin mutein) QDSTSDLIPAPPLSKVPLQQNFQDNQFQGKWYVVGRAGNVALREDKDPPKMRATIYELKEDKSYDVTAVRFARKKCLYSIGTFVPGSQPGEFTLGRIKSEPGYTANLVRVVSTNYNQHAMVFFKEVYQNREIFFIILYGRTKELTSELKENFIRFSKSLGLPENHIVFPVPIDQCIDGSAWSHPQFEK | binds | binds
lipocalin mutein of SEQ ID NO: 12 (designed binder, hNGAL (Lcn2) mutein; also called optimized GPC3 specific lipocalin mutein) QDSTSDLIPAPPLSKVPLQQNFQDNQFQGKWYVVGRAGNVALREDKDPPKMRATIYELKEDKSYDVTNVVFAGKKCKYSIGTFVPGSQPGEFTLGRIKSPPGNTANLVRVVSTNYNQHAMVFFKEVYQNREIFFIILYGRTKELTSELKENFIRFSKSLGLPENHIVFPVPIDQCIDGSAWSHPQFEK | binds | binds
lipocalin mutein of SEQ ID NO: 13 (designed binder, hNGAL (Lcn2) mutein; also called optimized GPC3 specific lipocalin mutein) QDSTSDLIPAPPLSKVPLQQNFQDNQFQGKWYVVGRAGNLGLREDKDPPKMWATIYELKEDKSYDVTNVRFARKKCMYSIGTFVPGSQPGEFTLGQIKSEPGSTANLVRVVSTNYNQHAMVFFKEVYQNREIFFITLYGRTKELTSELKENFIRFSKSLGLPENHIVFPVPIDQCIDGSAWSHPQFEK | binds | binds
lipocalin mutein of SEQ ID NO: 14 (designed binder, hNGAL (Lcn2) mutein; also called optimized GPC3 specific lipocalin mutein) QDSTSDLIPAPPLSKVPLQQNFQDNQFQGKWYVVGRAGNVGLREDKDPPKMWATIYELKEDKSYDVTNVRFAGKKVKYTIGTFVPGSQPGEFTLGQIKSEPGNTATLVRVVSTNYNQHAMVFFKEVYQNREIFFITLYGRTKELTSELKENFIRFSKSLGLPENHIVFPVPIDQAIDGSAWSHPQFEK | binds | binds
lipocalin mutein of SEQ ID NO: 15 (designed binder, hNGAL (Lcn2) mutein; also called optimized GPC3 specific lipocalin mutein) QDSTSDLIPAPPLSKVPLQQNFQDNQFQGKWYVVGRAGNVGLREDKDPPKMRATIYELKEDKSYDVTGVRFGEKKIKYSIGTFVPGSQPGEFTLGQIKSQPGDTANLVRVVSTNYNQHAMVFFKEVYQNREIFFIILYGRTKELTSELKENFIRFSKSLGLPENHIVFPVPIDQAIDGSAWSHPQFEK | binds | binds
lipocalin mutein of SEQ ID NO: 16 (designed binder, hNGAL (Lcn2) mutein; also called optimized GPC3 specific lipocalin mutein) QDSTSDLIPAPPLSKVPLQQNFQDNQFQGKWYVVGRAGNVGLREDKDPPKMRATIYELKEDKSYDVTGVRFDSKKVTYSIGTFVPGSQPGEFTLGQIKSEPGNTANLVRVVSTNYNQHAMVFFKEVYQNREIFFIILYGRTKELTSELKENFIRFSKSLGLPENHIVFPVPIDQAIDGSAWSHPQFEK | binds | binds
